The other results are listed elsewhere or left out. These are further read-outs of the screen, such as a control signal, another cell line or another target. No call is given for them. Most of these compounds were active or inconclusive in the main read-out, so they are no random draw. The note in brackets gives the kind of curve behind each potency; many fits are weak.
Experiment: qHTS Assay for Lipid Storage Modulators in Drosophila S3 Cells;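 for cell number change: cells counted by Cell Tracker Red CMTPX staining in the red channel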
Conditions: BODIPY lipid droplet fluorescence, 18-24 h; for cell number change: measured here: cell count max response, cells fed with added oleic acid
Outline: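 Laser-scanning cytometry quantifies lipid droplet accumulation (500–530 nm total intensity; droplet/cell object ratio) in oleic acid-fed (400 uM added) Drosophila S3 cells treated with a concentration series. 20 uM Triacsin C defined 100% inhibition.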

[1] = measured here: lipid fluorescence (Fed channel) AC50, cells fed with added oleic acid
[2] = measured here: cell number channel AC50, cells fed with added oleic acid

CC1(C)CN(c2ccc(CC#N)cc2)C1=O
cell number change: -16.3% | AC50 [1]: 0.731 µM [falling, full curve]

COc1ccc(/C=C2\SC(=S)N(CCC(=O)Nc3cccc(O)c3)C2=O)cc1
cell number change: 31.2% | AC50 [2]: 32.6 µM [rising, single point]

CC(Sc1nnnn1C1CCCC1)C(=O)Nc1cccc(S(=O)(=O)N2CCOCC2)c1 (stereo not drawn)
cell number change: -1.25% | AC50 [1]: 0.103 µM [rising, full curve, poor fit]

CCN(CC)Cc1c(-c2ccccc2)[nH]c2ccc(C)cc2c1=O
AC50 [2]: 2.31 µM [rising, partial curve]

COC(=O)C(C)Sc1nc2c(c(=O)n(C)c(=O)n2C)n1Cc1cccc(C)c1 (stereo not drawn)
cell number change: -15% | AC50 [1]: 0.058 µM [falling, full curve, poor fit]

CCN1CCC2(CCN(C(=O)c3cc(COc4cc(C)ccc4C)on3)C2)C1 (stereo not drawn)
cell number change: 13.4% | AC50 [1]: 29.1 µM [rising, partial curve]

CCCn1c(N)c(C(=O)CSc2nnnn2-c2ccc(O)cc2)c(=O)n(C)c1=O
cell number change: 110% | AC50 [2]: 29.1 µM [rising, single point] | AC50 [1]: 29.1 µM [rising, single point]

O=S(=O)(NN=C1CCCCCC1)c1ccc(Cl)cc1
cell number change: 10.9% | AC50 [2]: 0.00461 µM [rising, full curve, poor fit]

Nc1ccc(C(=O)c2cccs2)cc1[N+](=O)[O-]
cell number change: -5.13% | AC50 [2]: 0.00461 µM [falling, full curve, poor fit] | AC50 [1]: 0.00517 µM [falling, full curve, poor fit]

O=C(Nc1ccc(Cl)cc1)N1CCOCC1
cell number change: 16.1% | AC50 [1]: 0.13 µM [falling, full curve, poor fit]

O=C(c1cccs1)N1CCN=C1SCc1cccnc1
cell number change: -0.625% | AC50 [1]: 14.6 µM [rising, partial curve, poor fit]

CC1CN=C(NC2CCCCC2C)S1 (stereo not drawn)
cell number change: -3.96% | AC50 [1]: 0.184 µM [falling, full curve, poor fit]

COc1ccc(-c2cn3cccnc3n2)cc1NC(=O)C1CCCC1
AC50 [2]: 0.231 µM [rising, full curve] | AC50 [1]: 0.116 µM [rising, full curve, poor fit]

COc1ccc(C(CNC(=O)c2cc3ccccc3cc2OC)N2CCCC2)cc1 (stereo not drawn)
cell number change: -2.48% | AC50 [1]: 0.731 µM [rising, full curve]

COC(=O)C1CC(O)CN1S(=O)(=O)c1ccc2ccccc2c1 (stereo not drawn)
cell number change: 1.1% | AC50 [1]: 0.259 µM [rising, full curve]

C/C(=N\NC(=O)Cn1cc([N+](=O)[O-])cn1)c1ccco1
cell number change: 22.8% | AC50 [1]: 0.517 µM [rising, single point]

Cc1ccc(NC(=O)C2CCN(C(=O)c3ccccc3C)CC2)nc1
cell number change: -11.4%

C=CCc1ccccc1OCC(O)Cn1ccnc1C (stereo not drawn)
cell number change: -2.72%

Cc1noc(C)c1COc1ccc(C(=O)NCCc2ccc(F)cc2)cc1
cell number change: -4.29% | AC50 [2]: 6.51 µM [falling, single point] | AC50 [1]: 6.51 µM [falling, single point]

O=C(Nc1ccc(Cl)cc1)c1cccc(S(=O)(=O)Nc2ccccn2)c1
cell number change: 10.3%

CCOc1cc(NC(=O)C2CCCCC2)c(OCC)cc1NC(=O)c1ccco1
cell number change: -9.18% | AC50 [1]: 0.411 µM [falling, full curve]

COc1ccc(OC)c(NC(=S)NCCCN2CCOCC2)c1
cell number change: 0.392%

CC1CCCC(NC(=O)COC(=O)c2cccc(NS(=O)(=O)/C=C/c3ccccc3)c2)C1C (stereo not drawn)
cell number change: 36.7% | AC50 [2]: 16.4 µM [rising, single point]

CN=C1SC(CC(=O)Nc2sc(C)c(C)c2C(=O)OC)C(=O)N1C (stereo not drawn)
cell number change: 8.46% | AC50 [1]: 0.326 µM [rising, partial curve]

O=C(Nc1ccc(NC(=S)NC(=O)c2cccs2)cc1)c1ccccc1
cell number change: 11.3% | AC50 [1]: 4.61 µM [rising, full curve]

CCOC(=O)c1c(C)[nH]c(C)c1C(=O)COC(=O)CNC(=O)c1ccc(OCC)cc1
AC50 [1]: 0.731 µM [rising, single point]

Cc1ccc(Nc2nc(N)nc(CN3CCCCCC3)n2)cc1
AC50 [1]: 29.1 µM [rising, single point]

Cc1ccc(Oc2cc(NC(=O)CCCn3nc(C)c([N+](=O)[O-])c3C)cc([N+](=O)[O-])c2)cc1
cell number change: 34.5% | AC50 [2]: 2.06 µM [rising, full curve, poor fit]

CCOc1ccccc1C1CC(c2cccc(NS(C)(=O)=O)c2)=NN1C(=O)c1ccccc1 (stereo not drawn)
AC50 [1]: 20.6 µM [rising, single point]

Cn1c(CCNC(=O)c2ccco2)nc2cc(NS(=O)(=O)c3ccccc3)ccc21
cell number change: 16.2%

O=C(c1ccccc1)N1CCN(C(=O)C23CC4CC(CC(C4)C2)C3)CC1
cell number change: -3.87% | AC50 [1]: 5.8 µM [falling, single point]

O=C(CCNS(=O)(=O)c1cccc(Cl)c1)OCC(=O)N1CCN(C(=O)c2ccco2)CC1
cell number change: 3.08% | AC50 [1]: 29.1 µM [rising, partial curve, poor fit]

O=C(CC1OC(=O)c2ccccc21)NNC(=O)c1ccc(F)cc1 (stereo not drawn)
cell number change: 4.4% | AC50 [1]: 0.146 µM [falling, partial curve, poor fit]

CCC(Sc1nc2cc(OC)c(OC)cc2c(=O)n1Cc1ccco1)C(=O)NCCOC (stereo not drawn)
cell number change: 27.5% | AC50 [1]: 0.164 µM [rising, full curve, poor fit]

O=C1c2ccccc2NC(c2cccc(Cl)c2)N1N=C1CCCCCC1 (stereo not drawn)
cell number change: 3.31% | AC50 [1]: 0.58 µM [falling, full curve, poor fit]

C=CCOC(=O)CN1C(=O)c2ccccc2C1=O
cell number change: -1.9% | AC50 [1]: 0.116 µM [falling, single point]

O=C(Nc1ccc(Cl)cc1C(=O)N1CCOCC1)c1ccco1
cell number change: -11.6% | AC50 [2]: 2.59 µM [falling, partial curve, poor fit] | AC50 [1]: 6.51 µM [falling, single point]

OC(COCC(F)(F)C(F)(F)C(F)(F)C(F)F)Cn1c2ccc(Cl)cc2c2cc(Cl)ccc21 (stereo not drawn)
cell number change: -67.9% | AC50 [2]: 20.6 µM [falling, partial curve]

Clc1ccc(NC2(c3nnnn3C3CCCCC3)CCCCC2)cc1
cell number change: 12.2% | AC50 [1]: 8.2 µM [rising, partial curve]

CCOCCCNC(=O)c1cn(CC)c2ccc(S(=O)(=O)N(C)C3CCCCC3)cc2c1=O
cell number change: 19.1% | AC50 [1]: 3.66 µM [falling, single point]

CC1=Nn2c(nnc2-c2ccco2)SC1
cell number change: 21.7% | AC50 [1]: 1.84 µM [rising, full curve, poor fit]

CC(C)c1c(C(=O)N/N=C/c2ccc(OCc3ccccc3)cc2)nnn1-c1nonc1N
cell number change: 53.2% | AC50 [2]: 29.1 µM [rising, single point] | AC50 [1]: 29.1 µM [rising, single point]

COc1cc(C(=S)N2CCOCC2)ccc1OC(=O)c1ccc(Br)cc1
cell number change: -69.6% | AC50 [2]: 23.1 µM [falling, partial curve]

Cc1ccccc1OCC(=O)Nc1cc(S(=O)(=O)N2CCOCC2)ccc1N1CCCC1
cell number change: 30.2% | AC50 [2]: 29.1 µM [rising, single point] | AC50 [1]: 6.51 µM [rising, single point]

CCOC(=O)c1c(NC(=O)C[n+]2ccc(N(C)C)cc2)sc(C)c1C
cell number change: 6.06% | AC50 [1]: 6.51 µM [rising, partial curve, poor fit]

O=C1S/C(=C/c2ccccc2)C(=O)N1CC(O)Cn1c2ccccc2c2ccccc21 (stereo not drawn)
AC50 [1]: 29.1 µM [falling, single point]

Cc1ccc2c(C)ccc(O)c2n1
cell number change: 0.582% | AC50 [1]: 1.64 µM [falling, full curve]

Cc1ccc(NC(=O)C2CCN(C(=O)N3CCOc4ccccc43)CC2)cc1
cell number change: 3.46% | AC50 [1]: 29.1 µM [rising, single point]

COc1ccc(S(=O)(=O)N2CCOCC2)cc1NC(=O)Cc1ccccc1Cl
cell number change: 9.99% | AC50 [1]: 4.11 µM [rising, single point]

Cc1cc(C(=O)N/N=C/c2ccc(O)c(O)c2O)c(C)n1-c1ccccc1
cell number change: 2.9% | AC50 [1]: 0.651 µM [falling, single point]

O=C(CSc1nccn(-c2ccc(F)c(F)c2)c1=O)NC1CCCC1
cell number change: 30.2% | AC50 [2]: 16.4 µM [rising, partial curve, poor fit] | AC50 [1]: 14.6 µM [rising, partial curve]

Cc1ccnc(SCC(=O)c2cc3ccccc3o2)n1
cell number change: 0.683% | AC50 [1]: 0.461 µM [falling, single point]

O=C(NCCc1ccccc1)c1ccc(Cl)c(S(=O)(=O)N2CCOCC2)c1
cell number change: -22.9% | AC50 [1]: 7.31 µM [rising, single point]

O=C(CSc1ncc(-c2ccccc2)n1CC1CCCO1)N1CCCCC1 (stereo not drawn)
cell number change: -93.6% | AC50 [2]: 29.1 µM [falling, single point]

CC(C)CCNC(=O)NC(=O)CSc1nnc(-c2ccccc2Br)o1
cell number change: 33% | AC50 [1]: 0.58 µM [rising, single point]

Cc1cnc(C(=O)OCC(=O)Nc2cc(-c3ccccc3)nn2-c2ccccc2)cn1
AC50 [1]: 29.1 µM [rising, single point]

Cc1ccc(-c2csc(NC(=O)CSc3nc4ccccc4[nH]3)n2)cc1
cell number change: -48% | AC50 [2]: 16.4 µM [falling, single point] | AC50 [1]: 23.1 µM [falling, single point]

O=C1NC(=S)S/C1=C\C=C\c1ccc([N+](=O)[O-])o1
AC50 [1]: 5.8 µM [falling, partial curve]

COC(=O)c1ccccc1NC(=O)c1noc2c1CC(C(C)(C)C)CC2 (stereo not drawn)
AC50 [1]: 0.58 µM [rising, single point]

Source: PubChem BioAssay AID2685 (National Center for Advancing Translational Sciences (NCATS), 2010)
